In the supplement of paper PMC5662767:
Several values for one entry are separate records, joined by “and”; a condition that tells them apart may be missing. Equal entries are not always repeated. Structures can show the parent of a compound that is named as a salt. This is one part of the list. Baselines shift from plate to plate; read single values as rough.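 The clonal Drosophila S2 line carries Smoothened with a circularly permuted GFP inserted in its cytoplasmic tail, which fluoresces once Hh-driven phosphorylation opens an inhibitory loop. Per-cell fluorescence was read by flow cytometry, scaled to Hh-stimulated untreated cells. Hits were groups of inhibitors sharing pathway targets that shifted fluorescence consistently, not single compounds.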 Residues, ends and D or L forms follow the SMILES beside them. *: point of attachment. Cbz = O=C(OCc1ccccc1)*

System: Drosophila S2 cl14 SmoIP sensor cells
Assay: normalized SmoIP GFP fluorescence (untreated unstimulated = 0%, untreated Hh-stimulated = 100%); higher = more Smo activation sensor fluorescence
Settings: stimulation: Hh conditioned medium (+Hh); compound concentration: 15 uM; 24 h

Row | SMILES | normalized SmoIP GFP fluorescence [%]
1 | COC1=C2C[C@@H](C)C[C@H](OC)[C@H](O)[C@@H](C)/C=C(\C)[C@H](OC(N)=O)[C@@H](OC)/C=C\C=C(/C)C(=O)NC(=CC1=O)C2=O [geldanamycin] | 147
2 | CCOc1ccn(-c2ccc(F)cc2)c(=O)c1C(=O)Nc1ccc(Oc2ccnc(N)c2Cl)c(F)c1 | 53.5
3 | Cc1ccc(Nc2nccc(N(C)c3ccc4c(C)n(C)nc4c3)n2)cc1S(N)(=O)=O [Pazopanib-Hydrochloride] | 205
4 | Cc1cc(Nc2ccc(NC(=O)c3ccc(Nc4ccnc5ccccc45)cc3)cc2)nc(N)n1 | 143
5 | CN(C)CCCCC(=O)Nc1ccc(NC(=S)NC(=O)c2ccc(C(C)(C)C)cc2)cc1 [tenovin-6] | 138
6 | NC(=O)N1c2ccccc2CC(=O)c2ccccc21 [Oxcarbazepine] | 133
7 | Cc1cnc(-c2cnc(NCCNc3ccc(C#N)cn3)nc2-c2ccc(Cl)cc2Cl)[nH]1 | 134
8 | O=C(O)CCc1ccc(NCc2cccc(Oc3ccccc3)c2)cc1 | 103
9 | Cc1cc(OCc2nnc(SC3CCCC3)n2-c2cccnc2)ccc1-c1ccc(S(C)(=O)=O)cc1 | 146
10 | CC(C)n1nc(-c2ccc3oc(N)nc3c2)c2c(N)ncnc21 | 136
11 | Cc1cc(C2CCCCC2)n(O)c(=O)c1 [ciclopirox-ethanolamine] | 127
12 | CC(C(O)c1ccc(O)cc1)N1CCC(Cc2ccccc2)CC1 (stereo unspecified) [ifenprodil-tartrate] | 132
13 | CC(C)c1cc(-c2ccc(F)c3ccccc23)nc(N)n1 | 108
14 | CN1C2CCC1CC(OC(=O)C(O)c1ccccc1)C2 (stereo unspecified) [homatropine-bromide] | 117
15 | CCCC(C)NC(=O)c1ccc(Cl)c(Cl)c1 (stereo unspecified) | 107
16 | O=C(O)CCCCC(CCSCc1ccccc1)SCc1ccccc1 (stereo unspecified) | 125
17 | CS(=O)(=O)Nc1ccc([N+](=O)[O-])cc1Oc1ccccc1 [nimesulide] | 137
18 | CC(C)C[C@@H](C=O)NC(=O)[C@H](CC(C)C)NC(=O)[C@H](CC(C)C)NC(=O)OCc1ccccc1 (Cbz-Leu-Leu-Leu-aldehyde) | 99.1
19 | CC(C)c1noc(N2CCC(COc3ccc(-c4ccc(S(C)(=O)=O)cc4)nc3)CC2)n1 | 202
20 | CNCc1ccc(C)c(NC(=O)c2ccc(Nc3nc(-c4ccccc4)c4ccccc4n3)cc2)c1 | 170
21 | Cc1nnc(C(=O)NC(C)(C)c2nc(C(=O)NCc3ccc(F)cc3)c(O)c(=O)n2C)o1 [Raltegravir-(MK-0518)] | 121

Same assay, conditions: stimulation: mock conditioned medium (-Hh); compound concentration: 15 uM; 24 h

Row | SMILES | normalized SmoIP GFP fluorescence
22 | COC1=C2C[C@@H](C)C[C@H](OC)[C@H](O)[C@@H](C)/C=C(\C)[C@H](OC(N)=O)[C@@H](OC)/C=C\C=C(/C)C(=O)NC(=CC1=O)C2=O [geldanamycin] | 86.1%
23 | CCOc1ccn(-c2ccc(F)cc2)c(=O)c1C(=O)Nc1ccc(Oc2ccnc(N)c2Cl)c(F)c1 | -6.51%
24 | C=CCc1cccc(/C=N/NC(=O)CN2CCN(Cc3ccccc3)CC2)c1O | 78.2%
25 | Cc1ccc(Nc2nccc(N(C)c3ccc4c(C)n(C)nc4c3)n2)cc1S(N)(=O)=O [Pazopanib-Hydrochloride] | 76.4%
26 | Cc1cc(Nc2ccc(NC(=O)c3ccc(Nc4ccnc5ccccc45)cc3)cc2)nc(N)n1 | 2.35%
27 | O=C(Nc1cccnc1)N1CCC(Cc2cccc(Oc3ccc(C(F)(F)F)cn3)c2)CC1 | 94.6%
28 | CN(C)CCCCC(=O)Nc1ccc(NC(=S)NC(=O)c2ccc(C(C)(C)C)cc2)cc1 [tenovin-6] | 47.6%
29 | Cc1cnc(-c2cnc(NCCNc3ccc(C#N)cn3)nc2-c2ccc(Cl)cc2Cl)[nH]1 | 15.7%
30 | CC(=O)c1c(C)c2cnc(Nc3ccc(N4CCNCC4)cn3)nc2n(C2CCCC2)c1=O | 55.8%
31 | O=C(O)CCc1ccc(NCc2cccc(Oc3ccccc3)c2)cc1 | -14.5%
32 | O=[N+]([O-])c1ccc2c(c1)S(=O)(=O)C=C2 [stattic] | 91.8%
33 | Cc1cc(OCc2nnc(SC3CCCC3)n2-c2cccnc2)ccc1-c1ccc(S(C)(=O)=O)cc1 | 42.1%
34 | CC(C)n1nc(-c2ccc3oc(N)nc3c2)c2c(N)ncnc21 | 60.9%
35 | O=C(/C=C/c1cccc(S(=O)(=O)Nc2ccccc2)c1)NO [Belinostat] | 80.4%
36 | CC(C(O)c1ccc(O)cc1)N1CCC(Cc2ccccc2)CC1 (stereo unspecified) [ifenprodil-tartrate] | 9.51%
37 | O=C(/C=C/c1ccc(CN(CCO)CCc2c[nH]c3ccccc23)cc1)NO | 85.1%
38 | COc1ccc(CCc2nc3cc(-c4c(C)noc4C)ccc3n2C[C@H](C)N2CCOCC2)cc1Cl | 73.4%
39 | CC(C)c1cc(-c2ccc(F)c3ccccc23)nc(N)n1 | -12.2%

Row | SMILES | normalized SmoIP GFP fluorescence
40 | O=C(Oc1cc(S(=O)(=O)c2ccccc2)ccc1[N+](=O)[O-])c1ccc(Cl)cc1 | 81.3%
41 | CO[C@H]1/C=C\C=C(/C)C(=O)NC2=CC(=O)C(NCCN(C)C)=C(C[C@@H](C)C[C@H](OC)[C@H](O)[C@@H](C)/C=C(\C)[C@@H]1OC(N)=O)C2=O [17-DMAG,Hydrochloride-Salt] | 65.3%
42 | CN(C)Cc1ccc(S(=O)(=O)n2ccc(/C=C/C(=O)NO)c2)cc1 [resminostat-ras2410] | 70.1%
43 | CCCCc1nc2cc(/C=C/C(=O)NO)ccc2n1CCN(CC)CC | 83.9%
44 | C=CC(=O)Nc1cccc(Nc2nc(Nc3ccc(N4CCN(C(C)=O)CC4)cc3OC)ncc2C(F)(F)F)c1 | 58.1%
45 | CC(/C=C/C(=O)NO)=C\[C@@H](C)C(=O)c1ccc(N(C)C)cc1 [Trichostatin-A] | 75.3%
46 | CCCC(C)NC(=O)c1ccc(Cl)c(Cl)c1 (stereo unspecified) | 39.5%
47 | O=C(O)CCCCC(CCSCc1ccccc1)SCc1ccccc1 (stereo unspecified) | 2.86%
48 | CS(=O)(=O)Nc1ccc([N+](=O)[O-])cc1Oc1ccccc1 [nimesulide] | -9.4%
49 | CC(C)C[C@@H](C=O)NC(=O)[C@H](CC(C)C)NC(=O)[C@H](CC(C)C)NC(=O)OCc1ccccc1 (Cbz-Leu-Leu-Leu-aldehyde) | 70.8%
50 | CC(C)c1noc(N2CCC(COc3ccc(-c4ccc(S(C)(=O)=O)cc4)nc3)CC2)n1 | 48.7%
51 | Cc1nnc(C(=O)NC(C)(C)c2nc(C(=O)NCc3ccc(F)cc3)c(O)c(=O)n2C)o1 [Raltegravir-(MK-0518)] | 2.77%
52 | CC(C)[C@H](C(=O)Nc1ccc(C(=O)NO)cc1)c1ccccc1 | 64.6%
53 | CN(C)Cc1c(C(=O)NCCOc2ccc(C(=O)NO)cc2)oc2ccccc12 | 89.5%
54 | Nc1ccccc1NC(=O)c1ccc(CNC(=O)OCc2cccnc2)cc1 | 59.1%
55 | CC(C)N(CCCNC(=O)Nc1ccc(C(C)(C)C)cc1)C[C@H]1O[C@@H](n2ccc3c(N)ncnc32)[C@H](O)[C@@H]1O | 7.86% and 1.95%
56 | CNC(=O)c1ccccc1Nc1nc(Nc2ccc(N3CCOCC3)cc2OC)ncc1Cl | 40.9%
